Data taken from paper PMC9763423.
Results are given in words; binding and its absence hold for the method and conditions named. Binding seen in cells or lysates may run through a third protein. Some results given as binding are weak or reduced against the parent protein; the word gives no strength.

By UniProt entry, the sequences of proteins in these tests, tags left out.
UniProt Q07820: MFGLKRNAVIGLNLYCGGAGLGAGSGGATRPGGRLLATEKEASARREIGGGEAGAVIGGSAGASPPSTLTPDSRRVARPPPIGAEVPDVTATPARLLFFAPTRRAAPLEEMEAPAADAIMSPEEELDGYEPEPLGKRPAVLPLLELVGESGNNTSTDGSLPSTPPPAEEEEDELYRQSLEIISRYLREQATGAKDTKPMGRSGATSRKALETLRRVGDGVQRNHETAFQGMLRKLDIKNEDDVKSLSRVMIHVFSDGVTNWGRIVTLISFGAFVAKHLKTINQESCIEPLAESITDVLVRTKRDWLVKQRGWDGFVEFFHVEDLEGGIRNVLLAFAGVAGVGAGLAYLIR
UniProt Q93008: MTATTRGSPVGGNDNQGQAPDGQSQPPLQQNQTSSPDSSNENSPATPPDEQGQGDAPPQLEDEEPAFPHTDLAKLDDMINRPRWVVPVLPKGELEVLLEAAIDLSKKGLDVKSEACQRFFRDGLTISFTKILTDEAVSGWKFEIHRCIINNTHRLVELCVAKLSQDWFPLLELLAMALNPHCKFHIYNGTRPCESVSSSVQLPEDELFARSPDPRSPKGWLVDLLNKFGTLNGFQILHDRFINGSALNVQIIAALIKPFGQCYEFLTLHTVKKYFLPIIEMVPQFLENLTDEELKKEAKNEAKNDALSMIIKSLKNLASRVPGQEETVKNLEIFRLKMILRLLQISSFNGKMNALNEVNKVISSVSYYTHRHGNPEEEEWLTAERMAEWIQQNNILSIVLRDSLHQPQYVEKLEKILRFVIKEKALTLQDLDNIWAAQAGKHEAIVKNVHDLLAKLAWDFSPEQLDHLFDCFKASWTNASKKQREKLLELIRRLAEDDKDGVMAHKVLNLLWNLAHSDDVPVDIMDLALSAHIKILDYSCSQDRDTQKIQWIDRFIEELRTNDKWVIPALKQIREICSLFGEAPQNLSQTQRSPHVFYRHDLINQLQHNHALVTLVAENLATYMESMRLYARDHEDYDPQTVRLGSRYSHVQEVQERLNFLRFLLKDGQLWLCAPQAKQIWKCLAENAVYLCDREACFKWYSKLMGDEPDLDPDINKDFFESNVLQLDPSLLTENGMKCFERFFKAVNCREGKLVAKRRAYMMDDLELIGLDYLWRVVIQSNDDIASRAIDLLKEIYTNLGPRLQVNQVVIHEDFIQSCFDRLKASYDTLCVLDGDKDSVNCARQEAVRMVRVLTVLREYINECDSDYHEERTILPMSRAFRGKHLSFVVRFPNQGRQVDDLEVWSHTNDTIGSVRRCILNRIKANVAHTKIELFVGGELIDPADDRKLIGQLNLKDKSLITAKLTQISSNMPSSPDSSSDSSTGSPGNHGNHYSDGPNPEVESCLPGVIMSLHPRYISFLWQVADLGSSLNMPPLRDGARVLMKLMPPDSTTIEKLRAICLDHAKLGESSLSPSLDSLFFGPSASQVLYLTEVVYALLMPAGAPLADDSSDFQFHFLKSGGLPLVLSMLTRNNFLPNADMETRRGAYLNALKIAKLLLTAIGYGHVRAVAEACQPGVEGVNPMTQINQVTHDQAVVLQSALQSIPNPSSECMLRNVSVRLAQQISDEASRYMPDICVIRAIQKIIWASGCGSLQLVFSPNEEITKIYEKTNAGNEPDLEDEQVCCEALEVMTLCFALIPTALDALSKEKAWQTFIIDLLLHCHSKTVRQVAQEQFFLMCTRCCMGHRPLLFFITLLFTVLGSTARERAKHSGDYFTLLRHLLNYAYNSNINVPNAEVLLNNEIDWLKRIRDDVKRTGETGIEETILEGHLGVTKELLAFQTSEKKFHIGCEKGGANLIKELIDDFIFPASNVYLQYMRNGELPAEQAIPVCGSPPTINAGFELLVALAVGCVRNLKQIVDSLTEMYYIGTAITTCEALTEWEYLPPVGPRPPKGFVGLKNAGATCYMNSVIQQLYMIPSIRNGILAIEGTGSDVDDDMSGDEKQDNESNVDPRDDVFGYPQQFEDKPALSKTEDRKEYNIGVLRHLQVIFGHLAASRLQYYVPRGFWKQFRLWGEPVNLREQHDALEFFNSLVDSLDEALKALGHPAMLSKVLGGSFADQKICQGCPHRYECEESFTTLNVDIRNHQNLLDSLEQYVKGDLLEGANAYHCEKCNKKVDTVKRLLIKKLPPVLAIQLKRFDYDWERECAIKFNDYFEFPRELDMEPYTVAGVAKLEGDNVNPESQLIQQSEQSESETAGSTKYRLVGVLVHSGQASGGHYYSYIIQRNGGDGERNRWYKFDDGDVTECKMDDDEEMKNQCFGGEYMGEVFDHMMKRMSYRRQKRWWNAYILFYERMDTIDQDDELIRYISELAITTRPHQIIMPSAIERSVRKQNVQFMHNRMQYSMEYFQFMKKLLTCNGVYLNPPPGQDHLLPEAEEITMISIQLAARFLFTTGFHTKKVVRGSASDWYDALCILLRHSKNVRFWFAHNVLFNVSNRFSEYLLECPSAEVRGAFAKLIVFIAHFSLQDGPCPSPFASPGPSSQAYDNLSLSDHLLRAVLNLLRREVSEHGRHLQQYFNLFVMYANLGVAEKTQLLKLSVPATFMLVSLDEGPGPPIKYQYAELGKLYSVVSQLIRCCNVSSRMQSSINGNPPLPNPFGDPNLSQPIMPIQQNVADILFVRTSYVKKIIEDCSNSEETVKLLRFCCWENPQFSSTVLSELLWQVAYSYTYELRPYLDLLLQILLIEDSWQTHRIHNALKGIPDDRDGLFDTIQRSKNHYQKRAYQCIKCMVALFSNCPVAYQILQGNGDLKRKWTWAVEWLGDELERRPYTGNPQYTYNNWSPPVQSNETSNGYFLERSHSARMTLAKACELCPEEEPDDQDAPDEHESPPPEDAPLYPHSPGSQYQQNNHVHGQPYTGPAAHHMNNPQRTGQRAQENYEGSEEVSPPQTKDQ
UniProt P12956: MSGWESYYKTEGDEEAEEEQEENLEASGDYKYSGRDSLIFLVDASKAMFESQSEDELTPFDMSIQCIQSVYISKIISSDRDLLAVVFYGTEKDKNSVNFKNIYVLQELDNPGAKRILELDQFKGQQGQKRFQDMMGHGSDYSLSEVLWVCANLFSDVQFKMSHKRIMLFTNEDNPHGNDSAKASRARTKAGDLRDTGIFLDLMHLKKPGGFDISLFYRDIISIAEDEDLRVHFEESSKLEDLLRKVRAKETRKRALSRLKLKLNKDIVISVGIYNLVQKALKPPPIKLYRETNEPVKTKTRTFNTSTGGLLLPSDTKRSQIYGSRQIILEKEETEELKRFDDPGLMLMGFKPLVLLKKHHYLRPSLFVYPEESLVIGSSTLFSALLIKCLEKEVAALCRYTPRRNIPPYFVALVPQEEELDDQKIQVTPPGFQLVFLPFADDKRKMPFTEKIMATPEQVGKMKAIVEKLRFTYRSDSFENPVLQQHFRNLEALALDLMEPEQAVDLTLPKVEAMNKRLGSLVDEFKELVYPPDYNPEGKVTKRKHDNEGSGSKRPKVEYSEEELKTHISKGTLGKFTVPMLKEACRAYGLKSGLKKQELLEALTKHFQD

Target: myeloid cell leukemia-1 (MCL-1) (human (endogenous in CAL27R)) (UniProt Q07820)
Assay: co-IP; endogenous MCL-1 and deubiquitinases, CAL27R sgCtrl and TRAF4 knockout cells treated with/without IR (2 Gy) for 20 min; primary antibody and Protein A/G agarose beads, immunoblot

Row | binding | Substance
1 | binds | USP9X (from UniProt Q93008 1-2554) (enzyme)
2 | binds | Ku70 (from UniProt P12956 1-609)
